From paper PMC8887485
These are yes or no findings as the source states them, for the method shown. Binding seen in cells or lysates may run through a third protein. Some results given as binding are weak or reduced against the parent protein; the word gives no strength.

The chains behind the UniProt entries cited, without tags or fusion partners.
UniProt Q15022: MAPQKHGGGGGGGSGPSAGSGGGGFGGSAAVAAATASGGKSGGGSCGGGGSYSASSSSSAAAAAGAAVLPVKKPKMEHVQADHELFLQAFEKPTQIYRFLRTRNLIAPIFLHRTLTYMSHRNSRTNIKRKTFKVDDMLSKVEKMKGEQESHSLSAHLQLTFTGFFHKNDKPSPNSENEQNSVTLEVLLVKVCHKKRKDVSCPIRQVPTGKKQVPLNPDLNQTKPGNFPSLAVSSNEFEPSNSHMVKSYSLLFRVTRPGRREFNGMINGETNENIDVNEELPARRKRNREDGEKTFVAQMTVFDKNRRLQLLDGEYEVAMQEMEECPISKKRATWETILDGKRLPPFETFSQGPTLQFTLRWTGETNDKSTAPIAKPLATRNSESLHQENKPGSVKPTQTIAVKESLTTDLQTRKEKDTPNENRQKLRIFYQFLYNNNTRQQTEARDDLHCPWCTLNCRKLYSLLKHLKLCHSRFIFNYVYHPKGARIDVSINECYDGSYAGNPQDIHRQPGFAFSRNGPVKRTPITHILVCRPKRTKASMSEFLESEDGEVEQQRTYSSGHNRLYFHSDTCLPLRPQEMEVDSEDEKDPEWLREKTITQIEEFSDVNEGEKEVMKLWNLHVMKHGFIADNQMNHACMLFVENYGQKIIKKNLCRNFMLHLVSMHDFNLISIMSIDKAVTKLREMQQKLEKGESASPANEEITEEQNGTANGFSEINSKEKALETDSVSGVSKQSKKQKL
UniProt Q15910: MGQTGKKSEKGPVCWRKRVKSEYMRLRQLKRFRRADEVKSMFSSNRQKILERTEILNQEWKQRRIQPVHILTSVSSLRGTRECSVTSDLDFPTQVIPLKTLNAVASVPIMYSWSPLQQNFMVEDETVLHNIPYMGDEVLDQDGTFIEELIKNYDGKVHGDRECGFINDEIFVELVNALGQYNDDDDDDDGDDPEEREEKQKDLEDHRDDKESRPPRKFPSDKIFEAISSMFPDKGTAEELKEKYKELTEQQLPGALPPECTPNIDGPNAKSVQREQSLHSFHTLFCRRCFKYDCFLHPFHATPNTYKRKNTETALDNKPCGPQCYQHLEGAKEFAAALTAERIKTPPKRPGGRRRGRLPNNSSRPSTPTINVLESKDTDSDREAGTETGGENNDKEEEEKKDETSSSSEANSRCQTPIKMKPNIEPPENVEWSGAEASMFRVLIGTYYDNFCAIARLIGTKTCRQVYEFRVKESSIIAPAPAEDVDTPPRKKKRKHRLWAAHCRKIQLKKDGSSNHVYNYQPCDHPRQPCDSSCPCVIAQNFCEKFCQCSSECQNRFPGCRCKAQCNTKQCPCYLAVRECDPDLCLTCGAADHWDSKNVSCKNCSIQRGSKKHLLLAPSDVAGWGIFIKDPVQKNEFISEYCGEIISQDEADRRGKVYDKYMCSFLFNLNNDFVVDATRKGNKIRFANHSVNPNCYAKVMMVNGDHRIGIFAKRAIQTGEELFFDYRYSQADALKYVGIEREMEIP
UniProt Q9Y483: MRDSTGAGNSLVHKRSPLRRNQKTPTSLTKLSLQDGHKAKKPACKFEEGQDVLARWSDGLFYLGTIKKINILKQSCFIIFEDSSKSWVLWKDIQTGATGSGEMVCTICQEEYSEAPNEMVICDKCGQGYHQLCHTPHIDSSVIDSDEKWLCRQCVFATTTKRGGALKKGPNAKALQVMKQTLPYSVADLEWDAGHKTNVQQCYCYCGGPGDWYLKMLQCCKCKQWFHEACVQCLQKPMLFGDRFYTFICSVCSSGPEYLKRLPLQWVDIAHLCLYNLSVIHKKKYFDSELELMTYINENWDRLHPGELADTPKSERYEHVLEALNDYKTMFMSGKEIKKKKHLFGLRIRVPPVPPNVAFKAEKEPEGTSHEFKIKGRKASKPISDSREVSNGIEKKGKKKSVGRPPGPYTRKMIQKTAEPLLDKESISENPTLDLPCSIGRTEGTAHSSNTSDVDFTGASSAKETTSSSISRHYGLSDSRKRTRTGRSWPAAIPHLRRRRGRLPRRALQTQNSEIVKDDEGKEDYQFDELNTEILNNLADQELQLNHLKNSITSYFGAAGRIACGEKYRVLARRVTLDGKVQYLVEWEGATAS
UniProt A6NHQ4: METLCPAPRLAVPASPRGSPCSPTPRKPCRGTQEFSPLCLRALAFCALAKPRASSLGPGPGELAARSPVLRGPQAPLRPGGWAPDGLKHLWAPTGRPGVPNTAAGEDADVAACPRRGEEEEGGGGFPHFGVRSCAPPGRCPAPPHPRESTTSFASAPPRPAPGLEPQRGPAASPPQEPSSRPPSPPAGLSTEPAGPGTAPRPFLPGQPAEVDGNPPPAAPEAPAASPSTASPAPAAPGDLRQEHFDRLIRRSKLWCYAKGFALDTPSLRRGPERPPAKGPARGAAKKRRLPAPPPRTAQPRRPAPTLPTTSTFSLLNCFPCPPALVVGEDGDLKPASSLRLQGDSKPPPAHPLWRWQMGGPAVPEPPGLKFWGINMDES

Legend:
[1] = biological target: SUZ12 (human (endogenous in MCF7)) (UniProt Q15022); assay: co-IP; antibodies against EZH2 or SUZ12 with protein A magnetic Dynabeads; nuclear extracts of MCF7-tet-on-shCTR9 cells treated with Dox for 0 day or 7 days (CTR9 knockdown); IP buffer 50 mM Tris-HCl pH 7.5, 150 mM NaCl, 2 mM MgCl2, 0.5% NP-40, 10% glycerol; western blot
[2] = biological target: EZH2 (human (endogenous in MCF7)) (UniProt Q15910); assay: as above

| binding [1] | binding [2] | Substance |
| --- | --- | --- |
| binds | binds | MTF2 (from UniProt Q9Y483 1-593) |
|  | binds | PHF19 (from UniProt Q5T6S3 1-580) |
|  | binds | EPOP (from UniProt A6NHQ4 1-379) |
